Data: the supplement of paper PMC12067093, “Discovery and optimisation of a covalent ligand for TRIM25 and its application to targeted protein ubiquitination” (Chemical Science, 2025)
This is one part of the list.

By UniProt entry, the sequences of proteins in these tests, tags left out. Where a name states a change or a piece, a line headed by the entry shows the natural chain unless it says otherwise.
UniProt Q8IY92: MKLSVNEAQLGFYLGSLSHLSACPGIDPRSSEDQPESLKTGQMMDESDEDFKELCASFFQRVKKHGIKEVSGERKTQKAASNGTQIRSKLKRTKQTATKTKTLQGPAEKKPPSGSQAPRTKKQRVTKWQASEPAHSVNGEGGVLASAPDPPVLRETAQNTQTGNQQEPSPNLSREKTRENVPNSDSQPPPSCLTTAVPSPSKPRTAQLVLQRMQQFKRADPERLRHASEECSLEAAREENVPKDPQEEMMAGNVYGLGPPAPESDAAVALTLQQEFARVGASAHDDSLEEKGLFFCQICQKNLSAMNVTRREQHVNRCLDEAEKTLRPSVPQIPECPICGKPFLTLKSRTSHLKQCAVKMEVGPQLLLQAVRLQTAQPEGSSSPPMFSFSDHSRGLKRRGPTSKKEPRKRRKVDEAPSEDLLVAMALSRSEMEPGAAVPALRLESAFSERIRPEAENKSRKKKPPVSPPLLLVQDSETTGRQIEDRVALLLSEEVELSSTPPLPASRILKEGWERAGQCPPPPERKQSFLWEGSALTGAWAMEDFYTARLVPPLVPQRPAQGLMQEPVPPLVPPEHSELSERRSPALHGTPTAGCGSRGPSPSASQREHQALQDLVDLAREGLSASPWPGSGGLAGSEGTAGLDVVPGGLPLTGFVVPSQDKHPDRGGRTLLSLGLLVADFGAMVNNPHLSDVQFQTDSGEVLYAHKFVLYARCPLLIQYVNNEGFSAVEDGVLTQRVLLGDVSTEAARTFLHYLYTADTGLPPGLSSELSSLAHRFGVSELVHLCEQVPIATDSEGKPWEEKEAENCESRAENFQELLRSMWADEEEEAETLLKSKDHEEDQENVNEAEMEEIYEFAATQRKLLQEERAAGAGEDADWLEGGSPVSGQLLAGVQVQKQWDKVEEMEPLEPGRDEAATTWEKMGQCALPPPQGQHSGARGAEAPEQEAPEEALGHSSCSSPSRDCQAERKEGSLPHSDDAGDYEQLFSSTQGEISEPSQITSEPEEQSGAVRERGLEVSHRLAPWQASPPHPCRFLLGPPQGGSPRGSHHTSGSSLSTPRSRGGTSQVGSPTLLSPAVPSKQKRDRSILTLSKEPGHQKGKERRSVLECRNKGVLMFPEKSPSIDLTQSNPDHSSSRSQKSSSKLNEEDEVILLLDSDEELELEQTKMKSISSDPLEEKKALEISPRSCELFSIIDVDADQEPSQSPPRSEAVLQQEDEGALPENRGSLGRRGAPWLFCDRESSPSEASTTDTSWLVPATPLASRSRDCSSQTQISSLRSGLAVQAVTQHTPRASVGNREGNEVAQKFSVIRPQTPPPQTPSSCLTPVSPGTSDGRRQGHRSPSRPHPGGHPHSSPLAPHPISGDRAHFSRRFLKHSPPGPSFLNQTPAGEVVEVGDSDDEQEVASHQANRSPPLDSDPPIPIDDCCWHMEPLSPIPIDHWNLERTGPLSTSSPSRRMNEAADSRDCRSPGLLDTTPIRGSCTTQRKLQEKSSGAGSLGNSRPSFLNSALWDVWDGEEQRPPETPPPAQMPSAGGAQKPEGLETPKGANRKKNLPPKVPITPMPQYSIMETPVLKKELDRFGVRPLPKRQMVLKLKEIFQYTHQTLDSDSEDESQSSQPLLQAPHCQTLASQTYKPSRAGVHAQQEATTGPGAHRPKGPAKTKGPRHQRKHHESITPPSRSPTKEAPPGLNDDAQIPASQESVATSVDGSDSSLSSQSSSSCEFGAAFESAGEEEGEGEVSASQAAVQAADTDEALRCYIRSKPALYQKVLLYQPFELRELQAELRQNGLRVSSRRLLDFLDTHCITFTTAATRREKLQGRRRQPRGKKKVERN
UniProt Q9H4L7: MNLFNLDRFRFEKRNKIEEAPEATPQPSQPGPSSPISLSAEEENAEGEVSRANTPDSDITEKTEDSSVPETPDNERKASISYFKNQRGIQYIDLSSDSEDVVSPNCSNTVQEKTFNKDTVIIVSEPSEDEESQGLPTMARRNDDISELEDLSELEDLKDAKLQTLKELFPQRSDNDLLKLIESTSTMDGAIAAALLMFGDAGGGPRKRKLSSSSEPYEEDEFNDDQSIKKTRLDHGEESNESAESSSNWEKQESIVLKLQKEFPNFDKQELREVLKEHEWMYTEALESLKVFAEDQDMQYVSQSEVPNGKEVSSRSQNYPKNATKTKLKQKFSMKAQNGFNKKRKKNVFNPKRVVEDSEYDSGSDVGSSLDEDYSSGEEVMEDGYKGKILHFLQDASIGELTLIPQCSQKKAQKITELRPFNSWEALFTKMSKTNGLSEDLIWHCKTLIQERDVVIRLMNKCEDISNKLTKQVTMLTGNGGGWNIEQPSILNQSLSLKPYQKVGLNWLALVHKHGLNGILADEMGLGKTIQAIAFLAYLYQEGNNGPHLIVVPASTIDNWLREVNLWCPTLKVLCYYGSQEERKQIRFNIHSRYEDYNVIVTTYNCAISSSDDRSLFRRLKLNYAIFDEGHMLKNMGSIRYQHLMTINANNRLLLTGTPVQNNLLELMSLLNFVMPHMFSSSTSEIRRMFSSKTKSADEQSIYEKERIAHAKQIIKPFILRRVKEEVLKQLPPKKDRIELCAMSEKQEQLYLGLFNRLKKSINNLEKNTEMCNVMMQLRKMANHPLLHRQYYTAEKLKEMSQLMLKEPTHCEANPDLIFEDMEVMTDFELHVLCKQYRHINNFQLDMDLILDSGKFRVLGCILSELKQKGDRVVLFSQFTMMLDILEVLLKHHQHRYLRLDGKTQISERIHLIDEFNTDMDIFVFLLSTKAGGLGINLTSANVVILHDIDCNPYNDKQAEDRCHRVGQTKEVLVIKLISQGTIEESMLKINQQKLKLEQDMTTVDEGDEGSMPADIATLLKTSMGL
UniProt O95391: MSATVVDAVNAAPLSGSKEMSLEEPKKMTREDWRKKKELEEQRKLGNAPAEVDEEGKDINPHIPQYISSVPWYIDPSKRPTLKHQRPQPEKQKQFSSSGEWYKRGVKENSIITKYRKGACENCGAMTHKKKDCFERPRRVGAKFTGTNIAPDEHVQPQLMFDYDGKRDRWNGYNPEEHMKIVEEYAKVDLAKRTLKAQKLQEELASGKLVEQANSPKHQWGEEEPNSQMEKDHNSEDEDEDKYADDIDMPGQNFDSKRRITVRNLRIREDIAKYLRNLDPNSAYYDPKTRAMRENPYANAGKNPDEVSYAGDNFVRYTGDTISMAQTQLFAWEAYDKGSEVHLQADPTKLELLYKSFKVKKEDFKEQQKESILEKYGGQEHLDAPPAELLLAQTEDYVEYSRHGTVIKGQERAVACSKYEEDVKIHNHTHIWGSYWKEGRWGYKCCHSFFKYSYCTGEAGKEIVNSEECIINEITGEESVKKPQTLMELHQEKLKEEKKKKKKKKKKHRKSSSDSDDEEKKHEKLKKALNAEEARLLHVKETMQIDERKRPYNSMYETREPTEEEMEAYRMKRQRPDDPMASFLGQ
UniProt Q8WWI5: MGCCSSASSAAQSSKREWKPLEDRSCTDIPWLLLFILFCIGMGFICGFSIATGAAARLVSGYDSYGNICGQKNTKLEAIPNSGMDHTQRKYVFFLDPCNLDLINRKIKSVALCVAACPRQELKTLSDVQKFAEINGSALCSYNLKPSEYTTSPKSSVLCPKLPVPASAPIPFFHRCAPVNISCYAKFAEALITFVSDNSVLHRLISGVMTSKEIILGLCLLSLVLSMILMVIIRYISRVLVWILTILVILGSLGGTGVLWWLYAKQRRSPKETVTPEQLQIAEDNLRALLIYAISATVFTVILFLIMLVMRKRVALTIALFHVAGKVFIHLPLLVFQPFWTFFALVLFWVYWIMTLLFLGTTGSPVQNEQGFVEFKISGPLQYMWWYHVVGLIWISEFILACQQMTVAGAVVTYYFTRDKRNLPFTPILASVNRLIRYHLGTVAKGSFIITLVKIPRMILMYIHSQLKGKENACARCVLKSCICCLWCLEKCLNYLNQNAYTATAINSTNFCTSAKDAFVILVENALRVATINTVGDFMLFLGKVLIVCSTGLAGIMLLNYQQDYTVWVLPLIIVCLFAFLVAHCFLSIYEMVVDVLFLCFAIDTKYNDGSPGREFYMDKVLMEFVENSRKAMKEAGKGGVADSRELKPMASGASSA
UniProt Q13485: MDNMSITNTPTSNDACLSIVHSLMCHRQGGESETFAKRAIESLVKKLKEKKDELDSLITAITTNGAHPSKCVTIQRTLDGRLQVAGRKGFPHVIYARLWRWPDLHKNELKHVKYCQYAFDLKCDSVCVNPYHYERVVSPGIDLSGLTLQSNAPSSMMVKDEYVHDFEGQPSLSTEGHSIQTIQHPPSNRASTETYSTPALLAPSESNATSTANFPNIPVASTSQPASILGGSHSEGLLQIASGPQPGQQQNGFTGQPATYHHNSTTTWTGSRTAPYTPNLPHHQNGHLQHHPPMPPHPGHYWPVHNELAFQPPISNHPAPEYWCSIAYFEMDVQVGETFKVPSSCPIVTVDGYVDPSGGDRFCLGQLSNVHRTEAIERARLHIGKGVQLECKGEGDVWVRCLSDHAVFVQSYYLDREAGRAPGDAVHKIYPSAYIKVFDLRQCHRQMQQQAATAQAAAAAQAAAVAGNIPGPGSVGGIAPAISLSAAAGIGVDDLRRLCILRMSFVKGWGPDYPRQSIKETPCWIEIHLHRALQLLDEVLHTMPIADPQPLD
UniProt Q16637, whole entry, looked up: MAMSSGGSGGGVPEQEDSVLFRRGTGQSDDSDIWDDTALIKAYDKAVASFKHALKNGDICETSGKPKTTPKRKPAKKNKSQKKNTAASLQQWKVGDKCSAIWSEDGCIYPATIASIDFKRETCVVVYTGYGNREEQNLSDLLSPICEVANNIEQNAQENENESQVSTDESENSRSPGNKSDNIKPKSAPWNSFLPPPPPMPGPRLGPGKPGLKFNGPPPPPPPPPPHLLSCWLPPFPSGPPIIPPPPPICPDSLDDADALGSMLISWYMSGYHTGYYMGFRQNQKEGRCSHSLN
UniProt P62316, whole entry, looked up: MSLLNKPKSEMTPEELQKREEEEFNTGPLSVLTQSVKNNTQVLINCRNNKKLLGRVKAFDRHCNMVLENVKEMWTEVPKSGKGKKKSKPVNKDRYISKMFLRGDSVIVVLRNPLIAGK
UniProt Q8IYR2: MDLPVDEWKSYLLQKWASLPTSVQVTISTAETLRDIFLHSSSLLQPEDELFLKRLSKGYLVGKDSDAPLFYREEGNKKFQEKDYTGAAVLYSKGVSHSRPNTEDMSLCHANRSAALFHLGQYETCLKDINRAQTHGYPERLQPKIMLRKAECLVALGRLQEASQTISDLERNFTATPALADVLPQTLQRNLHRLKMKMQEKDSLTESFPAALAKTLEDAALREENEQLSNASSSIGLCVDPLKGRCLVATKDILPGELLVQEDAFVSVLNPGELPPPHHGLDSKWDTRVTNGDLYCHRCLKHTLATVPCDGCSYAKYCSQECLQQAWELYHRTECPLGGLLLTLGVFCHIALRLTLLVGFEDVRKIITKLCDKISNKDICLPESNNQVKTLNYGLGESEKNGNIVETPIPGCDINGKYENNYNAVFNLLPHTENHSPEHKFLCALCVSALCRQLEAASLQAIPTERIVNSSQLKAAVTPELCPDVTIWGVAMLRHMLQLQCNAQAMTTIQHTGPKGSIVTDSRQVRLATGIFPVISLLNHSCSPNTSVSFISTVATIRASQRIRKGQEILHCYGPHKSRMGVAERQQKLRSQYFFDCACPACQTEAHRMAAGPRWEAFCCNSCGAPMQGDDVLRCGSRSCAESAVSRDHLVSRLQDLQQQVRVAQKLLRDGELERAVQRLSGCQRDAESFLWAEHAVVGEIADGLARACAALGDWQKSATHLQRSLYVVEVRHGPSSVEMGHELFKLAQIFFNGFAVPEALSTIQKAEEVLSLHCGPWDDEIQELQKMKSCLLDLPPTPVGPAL
UniProt Q9C0K1: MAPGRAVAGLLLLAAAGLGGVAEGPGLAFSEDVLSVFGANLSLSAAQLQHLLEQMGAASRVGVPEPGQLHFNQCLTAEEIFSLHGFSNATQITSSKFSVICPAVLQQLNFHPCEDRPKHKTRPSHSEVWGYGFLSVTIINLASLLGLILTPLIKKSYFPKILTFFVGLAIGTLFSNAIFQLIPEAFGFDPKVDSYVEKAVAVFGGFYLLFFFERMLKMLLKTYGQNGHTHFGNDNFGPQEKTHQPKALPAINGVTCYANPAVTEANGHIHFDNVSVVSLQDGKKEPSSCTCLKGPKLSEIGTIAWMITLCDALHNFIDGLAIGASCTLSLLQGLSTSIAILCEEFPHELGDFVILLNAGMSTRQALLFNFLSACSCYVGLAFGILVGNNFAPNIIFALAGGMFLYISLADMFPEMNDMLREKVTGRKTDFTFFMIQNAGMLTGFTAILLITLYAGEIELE

compound: Cc1cc(ccc1-c1ccccc1)C(=O)N1CCCN(CC1)C(=O)CCl [compound 10]; assay: probe-labelled cysteine peptide fold change vs DMSO (competition) (log2 fold change); higher = less target engagement (more negative = stronger competition); conditions: 10 µM; THP-1; incubation time: 4 h
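Also: competitive profiling in live THP-1 cells: cysteine peptides tagged with an iodoacetamide desthiobiotin (IA-DTB) probe, intensity after compound treatment relative to DMSO-treated cells.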

Going from “SLX4_Q8IY92_318_CLDEAEK (UniProt Q8IY92)” to “SMAD3_P84022_109_AMELCEFAFNMK (UniProt P84022)”, the “probe-labelled cysteine peptide fold change” value rises from -0.0818 to 0.217.

Compared with “SMAD3_P84022_121_DEVCVNPYHYQR (UniProt P84022)”, “SMARCAD1_Q9H4L7_772_NTEMCNVMMQLR (UniProt Q9H4L7)” is lower in “probe-labelled cysteine peptide fold change” value: -0.00681 for the first, -0.283 for the second.

Compared with “SLU7_O95391_445_CCHSFFK (UniProt O95391)”, “SLC44A1_Q8WWI5_98_YVFFLDPCNLDLINR (UniProt Q8WWI5)” is higher in “probe-labelled cysteine peptide fold change” value: 0.00556 for the first, 0.0771 for the second.

Going from “SMAD4_Q13485_523_ETPCWIEIHLHR (UniProt Q13485)” to “SMN2_Q16637_60_NGDICETSGKPK (UniProt Q16637)”, the “probe-labelled cysteine peptide fold change” value falls from -0.0491 to -0.198.

Going from “SMC5_Q8IY18_726_LMEQDTCNLEEEERK (UniProt Q8IY18)” to “SMURF2_Q9HAU4_47_VVVDGSGQCHSTDTVK (UniProt Q9HAU4)”, the “probe-labelled cysteine peptide fold change” value rises from -0.184 to 0.0963.

First: SND1_Q7KZF4_268_DVQIILESCHNQNILGTILHPNGNITELLLK (UniProt Q7KZF4)
Second: SMCHD1_A6NHR9_474_GKRPIFECFWNGR (UniProt A6NHR9)
The “probe-labelled cysteine peptide fold change” value of the first is higher: 0.0651 for the first, -0.0837 for the second.

Going from “SMYD3_Q9H7B4_263_QLRDQYCFECDCFR (UniProt Q9H7B4)” to “SNRPD2_P62316_63_HCNMVLENVK (UniProt P62316)”, the “probe-labelled cysteine peptide fold change” value rises from -0.168 to 0.103.

Compared with “SMPD4_Q9NXE4_164_ASIQECILPDSPLYHNK (UniProt Q9NXE4)”, “SNRNP200_O75643_428_RCQLPDGSFR (UniProt O75643)” is lower in “probe-labelled cysteine peptide fold change” value: 0.00468 for the first, -0.17 for the second.

Compared with “SNRNP40_Q96DI7_168_RGPQLVCTGSDDGTVK (UniProt Q96DI7)”, “SMN2_Q16637_98_CSAIWSEDGCIYPATIASIDFK (UniProt Q16637)” is higher in “probe-labelled cysteine peptide fold change” value: -0.149 for the first, 0.0843 for the second.

Going from “SMS_P52788_237_TCGDVLDNLK (UniProt P52788)” to “SMU1_Q2TAY7_448_EGGDFVCCALSPR (UniProt Q2TAY7)”, the “probe-labelled cysteine peptide fold change” value rises from 0.00123 to 0.0607.

Compared with “SLMAP_Q14BN4_120_KVTHGCIVSTIK (UniProt Q14BN4)”, “SMYD4_Q8IYR2_501_HMLQLQCNAQAMTTIQHTGPK (UniProt Q8IYR2)” is higher in “probe-labelled cysteine peptide fold change” value: 0.226 for the first, 0.284 for the second.

First: SNRNP200_O75643_1127_MWQSMCPLR (UniProt O75643)
Second: SNRNP200_O75643_1731_FLYEPLPVESHLDHCMHDHFNAEIVTK (UniProt O75643)
The “probe-labelled cysteine peptide fold change” value of the first is lower: -0.0661 for the first, 0.129 for the second.

First: SLMAP_Q14BN4_286_SLSNTEDECTHLK (UniProt Q14BN4)
Second: SMARCB1_Q12824_147_NSQWVPTLPNSSHHLDAVPCSTTINR (UniProt Q12824)
The “probe-labelled cysteine peptide fold change” value of the first is lower: -0.314 for the first, -0.218 for the second.

Compared with “SNRNP40_Q96DI7_168_GPQLVCTGSDDGTVK (UniProt Q96DI7)”, “SMARCA2_P51531_1175_LCTVNSVEEK (UniProt P51531)” is higher in “probe-labelled cysteine peptide fold change” value: -0.00336 for the first, 0.113 for the second.

First: SMS_P52788_229_MVTMVEIDQMVIDGCKK (UniProt P52788)
Second: SMPD4_Q9NXE4_221_TSDCAYFILVDR (UniProt Q9NXE4)
The “probe-labelled cysteine peptide fold change” value of the first is lower: -0.0388 for the first, 0.216 for the second.

Compared with “SLC39A8_Q9C0K1_101_FSVICPAVLQQLNFHPCEDRPK (UniProt Q9C0K1)”, “SMARCC1_Q92922_845_ELTDTCK (UniProt Q92922)” is lower in “probe-labelled cysteine peptide fold change” value: 0.00167 for the first, -0.0883 for the second.

Compared with “SMPD1_P17405_229_ILFLTDLHWDHDYLEGTDPDCADPLCCR (UniProt P17405)”, “SMYD5_Q6GMV2_70_ACDHCLR (UniProt Q6GMV2)” is higher in “probe-labelled cysteine peptide fold change” value: -0.591 for the first, -0.0892 for the second.

Going from “SLC4A1AP_Q9BWU0_399_EGEELEYEFDEQGHSTWLCR (UniProt Q9BWU0)” to “SMURF2_Q9HAU4_627_ELELIICGLGK (UniProt Q9HAU4)”, the “probe-labelled cysteine peptide fold change” value rises from 0.041 to 0.0707.

Going from “SNRNP200_O75643_1706_CVIMCQGSK (UniProt O75643)” to “SMARCA2_P51531_1016_ICNHPYMFQHIEESFAEHLGYSNGVINGAELYR (UniProt P51531)”, the “probe-labelled cysteine peptide fold change” value falls from 0.0611 to 0.0118.

same assay, conditions: 50 µM; THP-1; incubation time: 4 h

Compared with “SLX4_Q8IY92_318_CLDEAEK (UniProt Q8IY92)”, “SMAD3_P84022_109_AMELCEFAFNMK (UniProt P84022)” is higher in “probe-labelled cysteine peptide fold change” value: 0.0245 for the first, 0.321 for the second.

Going from “SMAD3_P84022_121_DEVCVNPYHYQR (UniProt P84022)” to “SMARCAD1_Q9H4L7_772_NTEMCNVMMQLR (UniProt Q9H4L7)”, the “probe-labelled cysteine peptide fold change” value falls from -0.0626 to -0.983.

Compared with “SLU7_O95391_445_CCHSFFK (UniProt O95391)”, “SLC44A1_Q8WWI5_98_YVFFLDPCNLDLINR (UniProt Q8WWI5)” is higher in “probe-labelled cysteine peptide fold change” value: 0.117 for the first, 0.185 for the second.

Compared with “SMAD4_Q13485_523_ETPCWIEIHLHR (UniProt Q13485)”, “SMN2_Q16637_60_NGDICETSGKPK (UniProt Q16637)” is lower in “probe-labelled cysteine peptide fold change” value: -0.057 for the first, -0.473 for the second.

Going from “SMC5_Q8IY18_726_LMEQDTCNLEEEERK (UniProt Q8IY18)” to “SMURF2_Q9HAU4_47_VVVDGSGQCHSTDTVK (UniProt Q9HAU4)”, the “probe-labelled cysteine peptide fold change” value falls from -0.208 to -0.248.

Going from “SND1_Q7KZF4_268_DVQIILESCHNQNILGTILHPNGNITELLLK (UniProt Q7KZF4)” to “SMCHD1_A6NHR9_474_GKRPIFECFWNGR (UniProt A6NHR9)”, the “probe-labelled cysteine peptide fold change” value falls from 0.0169 to -0.248.

Going from “SMYD3_Q9H7B4_263_QLRDQYCFECDCFR (UniProt Q9H7B4)” to “SNRPD2_P62316_63_HCNMVLENVK (UniProt P62316)”, the “probe-labelled cysteine peptide fold change” value rises from -0.258 to -0.0621.

Going from “SMPD4_Q9NXE4_164_ASIQECILPDSPLYHNK (UniProt Q9NXE4)” to “SNRNP200_O75643_428_RCQLPDGSFR (UniProt O75643)”, the “probe-labelled cysteine peptide fold change” value rises from 0.153 to 0.174.

First: SNRNP40_Q96DI7_168_RGPQLVCTGSDDGTVK (UniProt Q96DI7)
Second: SMN2_Q16637_98_CSAIWSEDGCIYPATIASIDFK (UniProt Q16637)
The “probe-labelled cysteine peptide fold change” value of the first is lower: -9.5e-06 for the first, 0.0664 for the second.

Going from “SMS_P52788_237_TCGDVLDNLK (UniProt P52788)” to “SMU1_Q2TAY7_448_EGGDFVCCALSPR (UniProt Q2TAY7)”, the “probe-labelled cysteine peptide fold change” value falls from 0.12 to -0.298.

Going from “SLMAP_Q14BN4_120_KVTHGCIVSTIK (UniProt Q14BN4)” to “SMYD4_Q8IYR2_501_HMLQLQCNAQAMTTIQHTGPK (UniProt Q8IYR2)”, the “probe-labelled cysteine peptide fold change” value falls from 0.0448 to 0.0362.

First: SNRNP200_O75643_1127_MWQSMCPLR (UniProt O75643)
Second: SNRNP200_O75643_1731_FLYEPLPVESHLDHCMHDHFNAEIVTK (UniProt O75643)
The “probe-labelled cysteine peptide fold change” value of the first is lower: 0.03 for the first, 0.126 for the second.

First: SLMAP_Q14BN4_286_SLSNTEDECTHLK (UniProt Q14BN4)
Second: SMARCB1_Q12824_147_NSQWVPTLPNSSHHLDAVPCSTTINR (UniProt Q12824)
The “probe-labelled cysteine peptide fold change” value of the first is lower: -0.224 for the first, -0.109 for the second.

Going from “SNRNP40_Q96DI7_168_GPQLVCTGSDDGTVK (UniProt Q96DI7)” to “SMARCA2_P51531_1175_LCTVNSVEEK (UniProt P51531)”, the “probe-labelled cysteine peptide fold change” value rises from 0.0777 to 0.118.

First: SMS_P52788_229_MVTMVEIDQMVIDGCKK (UniProt P52788)
Second: SMPD4_Q9NXE4_221_TSDCAYFILVDR (UniProt Q9NXE4)
The “probe-labelled cysteine peptide fold change” value of the first is lower: -0.348 for the first, 0.17 for the second.

Compared with “SLC39A8_Q9C0K1_101_FSVICPAVLQQLNFHPCEDRPK (UniProt Q9C0K1)”, “SMARCC1_Q92922_845_ELTDTCK (UniProt Q92922)” is lower in “probe-labelled cysteine peptide fold change” value: 0.168 for the first, -0.168 for the second.

First: SMPD1_P17405_229_ILFLTDLHWDHDYLEGTDPDCADPLCCR (UniProt P17405)
Second: SMYD5_Q6GMV2_70_ACDHCLR (UniProt Q6GMV2)
The “probe-labelled cysteine peptide fold change” value of the first is higher: -0.143 for the first, -0.392 for the second.

Compared with “SLC4A1AP_Q9BWU0_399_EGEELEYEFDEQGHSTWLCR (UniProt Q9BWU0)”, “SMURF2_Q9HAU4_627_ELELIICGLGK (UniProt Q9HAU4)” is higher in “probe-labelled cysteine peptide fold change” value: -0.121 for the first, 0.202 for the second.

Compared with “SNRNP200_O75643_1706_CVIMCQGSK (UniProt O75643)”, “SMARCA2_P51531_1016_ICNHPYMFQHIEESFAEHLGYSNGVINGAELYR (UniProt P51531)” is higher in “probe-labelled cysteine peptide fold change” value: -0.0986 for the first, 0.067 for the second.
